Test results: the supplement of paper PMC10849652
The other results are listed elsewhere or left out.

Amino acid sequences for entries named in this document (tags omitted). A change or cut given only in a name is not applied to a line headed by its entry.
UniProt Q13418: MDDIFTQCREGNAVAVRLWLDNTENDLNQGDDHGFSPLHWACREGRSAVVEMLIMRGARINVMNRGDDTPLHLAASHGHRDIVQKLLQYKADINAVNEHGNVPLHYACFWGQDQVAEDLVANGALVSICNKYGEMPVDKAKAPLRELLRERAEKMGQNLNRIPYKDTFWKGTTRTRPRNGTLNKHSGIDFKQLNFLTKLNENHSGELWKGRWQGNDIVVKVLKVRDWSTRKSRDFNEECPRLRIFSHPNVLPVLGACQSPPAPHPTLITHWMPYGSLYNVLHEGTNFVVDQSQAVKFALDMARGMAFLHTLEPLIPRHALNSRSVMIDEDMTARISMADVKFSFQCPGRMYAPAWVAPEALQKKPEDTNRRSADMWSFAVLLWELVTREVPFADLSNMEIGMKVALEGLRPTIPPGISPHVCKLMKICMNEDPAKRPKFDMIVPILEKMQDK
UniProt Q96LB3: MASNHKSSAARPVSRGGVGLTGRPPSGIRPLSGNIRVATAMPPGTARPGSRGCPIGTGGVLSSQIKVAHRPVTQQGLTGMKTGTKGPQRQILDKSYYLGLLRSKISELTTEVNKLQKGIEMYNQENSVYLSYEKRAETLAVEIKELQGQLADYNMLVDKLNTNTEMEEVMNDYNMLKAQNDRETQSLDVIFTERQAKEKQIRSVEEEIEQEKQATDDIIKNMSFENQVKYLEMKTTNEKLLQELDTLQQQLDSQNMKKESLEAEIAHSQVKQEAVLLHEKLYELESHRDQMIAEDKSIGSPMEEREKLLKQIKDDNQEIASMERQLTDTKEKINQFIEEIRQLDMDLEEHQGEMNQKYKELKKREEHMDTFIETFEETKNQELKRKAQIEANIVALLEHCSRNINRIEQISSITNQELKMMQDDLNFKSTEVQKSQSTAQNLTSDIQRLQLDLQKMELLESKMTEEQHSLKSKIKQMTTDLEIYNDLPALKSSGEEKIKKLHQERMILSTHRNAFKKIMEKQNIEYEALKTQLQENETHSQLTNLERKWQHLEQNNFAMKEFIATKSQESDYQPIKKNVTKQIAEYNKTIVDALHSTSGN
UniProt A2RU49: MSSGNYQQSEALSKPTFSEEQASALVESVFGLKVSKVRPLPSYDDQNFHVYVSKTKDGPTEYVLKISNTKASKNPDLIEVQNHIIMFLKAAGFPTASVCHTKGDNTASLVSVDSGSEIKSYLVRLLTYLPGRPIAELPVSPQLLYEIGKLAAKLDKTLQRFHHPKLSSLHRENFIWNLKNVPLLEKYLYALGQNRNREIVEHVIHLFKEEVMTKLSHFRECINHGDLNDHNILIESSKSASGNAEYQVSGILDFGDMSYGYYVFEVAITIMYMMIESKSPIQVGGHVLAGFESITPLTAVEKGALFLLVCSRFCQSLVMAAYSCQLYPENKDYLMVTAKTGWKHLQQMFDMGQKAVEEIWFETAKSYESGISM
UniProt Q92598: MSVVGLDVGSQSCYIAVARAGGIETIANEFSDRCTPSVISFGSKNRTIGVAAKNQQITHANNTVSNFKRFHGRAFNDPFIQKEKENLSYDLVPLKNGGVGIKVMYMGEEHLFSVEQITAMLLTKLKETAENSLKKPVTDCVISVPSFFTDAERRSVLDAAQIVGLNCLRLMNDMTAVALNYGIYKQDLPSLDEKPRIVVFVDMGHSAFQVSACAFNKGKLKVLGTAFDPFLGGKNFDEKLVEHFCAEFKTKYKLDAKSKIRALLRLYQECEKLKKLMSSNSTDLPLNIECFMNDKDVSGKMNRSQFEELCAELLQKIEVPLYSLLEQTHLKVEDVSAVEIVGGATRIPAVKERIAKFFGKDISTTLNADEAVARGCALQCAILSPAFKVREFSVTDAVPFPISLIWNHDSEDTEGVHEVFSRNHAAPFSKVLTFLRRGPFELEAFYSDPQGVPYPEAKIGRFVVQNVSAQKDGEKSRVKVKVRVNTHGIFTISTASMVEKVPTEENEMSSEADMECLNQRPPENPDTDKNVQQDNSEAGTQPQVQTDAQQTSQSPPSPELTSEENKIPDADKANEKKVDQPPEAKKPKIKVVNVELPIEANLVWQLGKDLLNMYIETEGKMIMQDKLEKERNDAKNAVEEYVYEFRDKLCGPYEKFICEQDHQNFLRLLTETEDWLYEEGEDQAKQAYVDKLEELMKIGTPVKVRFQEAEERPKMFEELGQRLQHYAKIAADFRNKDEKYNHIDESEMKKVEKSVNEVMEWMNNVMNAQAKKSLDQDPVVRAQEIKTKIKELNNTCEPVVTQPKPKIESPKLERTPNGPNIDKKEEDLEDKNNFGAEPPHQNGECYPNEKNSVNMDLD
UniProt P50213: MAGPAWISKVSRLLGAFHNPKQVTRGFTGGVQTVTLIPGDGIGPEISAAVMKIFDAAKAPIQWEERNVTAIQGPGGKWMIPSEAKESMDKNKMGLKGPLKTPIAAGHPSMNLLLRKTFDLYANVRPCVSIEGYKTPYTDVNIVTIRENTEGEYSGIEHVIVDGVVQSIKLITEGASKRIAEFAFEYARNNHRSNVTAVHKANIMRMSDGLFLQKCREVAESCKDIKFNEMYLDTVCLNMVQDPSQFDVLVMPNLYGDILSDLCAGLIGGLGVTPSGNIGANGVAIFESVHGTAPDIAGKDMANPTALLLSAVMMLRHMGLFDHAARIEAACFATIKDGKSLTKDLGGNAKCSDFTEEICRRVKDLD
UniProt Q9Y5U9: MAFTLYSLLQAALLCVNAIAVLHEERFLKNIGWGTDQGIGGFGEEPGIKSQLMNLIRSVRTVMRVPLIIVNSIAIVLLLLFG
UniProt P42858, whole entry, looked up: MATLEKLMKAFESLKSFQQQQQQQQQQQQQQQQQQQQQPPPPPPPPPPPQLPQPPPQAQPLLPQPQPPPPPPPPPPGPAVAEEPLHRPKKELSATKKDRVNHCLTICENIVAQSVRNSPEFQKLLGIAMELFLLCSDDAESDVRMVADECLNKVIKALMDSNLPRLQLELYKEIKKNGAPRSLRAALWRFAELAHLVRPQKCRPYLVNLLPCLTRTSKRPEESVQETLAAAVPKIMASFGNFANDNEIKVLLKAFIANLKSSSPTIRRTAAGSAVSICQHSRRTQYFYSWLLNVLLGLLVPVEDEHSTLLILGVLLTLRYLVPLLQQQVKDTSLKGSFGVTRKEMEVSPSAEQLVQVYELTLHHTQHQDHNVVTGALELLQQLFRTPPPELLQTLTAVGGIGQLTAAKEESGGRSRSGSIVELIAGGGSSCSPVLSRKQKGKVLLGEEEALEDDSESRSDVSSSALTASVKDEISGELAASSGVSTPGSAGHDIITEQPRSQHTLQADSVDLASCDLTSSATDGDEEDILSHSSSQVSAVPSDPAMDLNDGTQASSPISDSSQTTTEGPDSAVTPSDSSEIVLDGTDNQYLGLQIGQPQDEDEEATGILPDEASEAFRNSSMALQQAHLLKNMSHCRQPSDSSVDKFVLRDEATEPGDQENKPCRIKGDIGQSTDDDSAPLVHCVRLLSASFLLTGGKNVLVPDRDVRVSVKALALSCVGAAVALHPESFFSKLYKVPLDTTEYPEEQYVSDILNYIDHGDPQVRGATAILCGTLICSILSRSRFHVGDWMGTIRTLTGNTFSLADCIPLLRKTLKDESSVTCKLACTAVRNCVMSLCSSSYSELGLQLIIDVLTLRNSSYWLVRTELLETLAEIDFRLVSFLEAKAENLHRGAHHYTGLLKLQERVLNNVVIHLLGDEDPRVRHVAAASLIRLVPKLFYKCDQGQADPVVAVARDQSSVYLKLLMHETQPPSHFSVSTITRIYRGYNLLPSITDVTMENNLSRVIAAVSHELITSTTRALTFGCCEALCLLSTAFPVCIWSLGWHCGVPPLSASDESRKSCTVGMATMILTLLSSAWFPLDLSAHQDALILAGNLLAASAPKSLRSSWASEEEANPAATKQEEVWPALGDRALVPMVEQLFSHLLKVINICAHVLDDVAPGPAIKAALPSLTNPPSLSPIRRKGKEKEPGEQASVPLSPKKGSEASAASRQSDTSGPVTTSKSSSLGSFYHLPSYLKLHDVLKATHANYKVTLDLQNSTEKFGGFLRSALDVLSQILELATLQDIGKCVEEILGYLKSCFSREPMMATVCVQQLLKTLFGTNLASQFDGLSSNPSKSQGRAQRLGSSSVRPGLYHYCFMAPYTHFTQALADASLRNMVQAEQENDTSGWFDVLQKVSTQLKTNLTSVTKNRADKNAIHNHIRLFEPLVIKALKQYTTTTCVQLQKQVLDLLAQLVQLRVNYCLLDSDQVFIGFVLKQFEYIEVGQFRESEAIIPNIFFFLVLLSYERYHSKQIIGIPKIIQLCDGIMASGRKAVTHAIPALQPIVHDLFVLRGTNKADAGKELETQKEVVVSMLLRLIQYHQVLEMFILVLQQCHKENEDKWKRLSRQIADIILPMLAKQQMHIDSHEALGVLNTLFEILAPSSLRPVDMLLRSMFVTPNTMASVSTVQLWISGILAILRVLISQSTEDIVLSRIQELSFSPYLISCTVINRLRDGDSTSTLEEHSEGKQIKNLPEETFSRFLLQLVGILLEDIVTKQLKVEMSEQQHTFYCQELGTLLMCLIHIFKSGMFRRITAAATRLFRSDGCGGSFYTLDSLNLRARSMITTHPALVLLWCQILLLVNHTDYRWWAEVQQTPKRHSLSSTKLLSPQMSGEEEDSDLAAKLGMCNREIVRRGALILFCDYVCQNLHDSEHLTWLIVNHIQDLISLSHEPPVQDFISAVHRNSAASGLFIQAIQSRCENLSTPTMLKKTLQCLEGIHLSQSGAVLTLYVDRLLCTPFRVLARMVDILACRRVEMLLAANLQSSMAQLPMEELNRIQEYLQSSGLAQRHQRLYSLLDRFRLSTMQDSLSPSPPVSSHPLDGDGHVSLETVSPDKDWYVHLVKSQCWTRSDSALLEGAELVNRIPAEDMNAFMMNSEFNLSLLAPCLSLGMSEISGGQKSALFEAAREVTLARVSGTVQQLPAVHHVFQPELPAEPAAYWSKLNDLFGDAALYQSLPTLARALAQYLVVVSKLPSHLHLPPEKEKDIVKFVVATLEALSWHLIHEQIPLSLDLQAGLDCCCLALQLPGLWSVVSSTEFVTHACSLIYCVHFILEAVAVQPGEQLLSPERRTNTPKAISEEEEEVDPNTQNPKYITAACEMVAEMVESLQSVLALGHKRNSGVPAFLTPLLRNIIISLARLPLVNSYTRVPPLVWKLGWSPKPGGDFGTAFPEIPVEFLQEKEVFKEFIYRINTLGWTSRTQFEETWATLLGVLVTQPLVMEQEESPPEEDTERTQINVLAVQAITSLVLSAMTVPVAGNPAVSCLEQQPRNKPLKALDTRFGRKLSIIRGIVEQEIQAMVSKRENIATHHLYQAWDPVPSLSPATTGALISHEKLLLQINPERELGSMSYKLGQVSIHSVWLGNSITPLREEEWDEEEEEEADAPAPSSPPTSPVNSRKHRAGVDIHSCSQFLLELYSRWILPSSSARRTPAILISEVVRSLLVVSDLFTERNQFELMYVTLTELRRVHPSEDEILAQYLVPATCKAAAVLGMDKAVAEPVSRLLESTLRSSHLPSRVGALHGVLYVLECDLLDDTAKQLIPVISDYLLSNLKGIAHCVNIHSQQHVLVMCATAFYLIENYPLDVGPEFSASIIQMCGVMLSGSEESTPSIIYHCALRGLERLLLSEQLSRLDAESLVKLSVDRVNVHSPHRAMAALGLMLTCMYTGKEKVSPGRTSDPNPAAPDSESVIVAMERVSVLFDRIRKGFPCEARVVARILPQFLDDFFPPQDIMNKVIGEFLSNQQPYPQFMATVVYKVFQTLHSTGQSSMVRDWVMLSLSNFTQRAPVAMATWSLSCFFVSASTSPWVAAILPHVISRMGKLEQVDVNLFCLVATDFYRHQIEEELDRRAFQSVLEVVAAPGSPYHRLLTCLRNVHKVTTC
UniProt Q8WYH8, whole entry, looked up: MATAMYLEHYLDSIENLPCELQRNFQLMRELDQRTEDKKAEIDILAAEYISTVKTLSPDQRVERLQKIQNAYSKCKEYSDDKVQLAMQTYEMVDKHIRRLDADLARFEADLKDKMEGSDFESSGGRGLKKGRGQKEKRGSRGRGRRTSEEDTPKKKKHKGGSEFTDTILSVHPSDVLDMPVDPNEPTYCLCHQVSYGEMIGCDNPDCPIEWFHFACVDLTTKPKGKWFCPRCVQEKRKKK
UniProt P01860, whole entry, looked up: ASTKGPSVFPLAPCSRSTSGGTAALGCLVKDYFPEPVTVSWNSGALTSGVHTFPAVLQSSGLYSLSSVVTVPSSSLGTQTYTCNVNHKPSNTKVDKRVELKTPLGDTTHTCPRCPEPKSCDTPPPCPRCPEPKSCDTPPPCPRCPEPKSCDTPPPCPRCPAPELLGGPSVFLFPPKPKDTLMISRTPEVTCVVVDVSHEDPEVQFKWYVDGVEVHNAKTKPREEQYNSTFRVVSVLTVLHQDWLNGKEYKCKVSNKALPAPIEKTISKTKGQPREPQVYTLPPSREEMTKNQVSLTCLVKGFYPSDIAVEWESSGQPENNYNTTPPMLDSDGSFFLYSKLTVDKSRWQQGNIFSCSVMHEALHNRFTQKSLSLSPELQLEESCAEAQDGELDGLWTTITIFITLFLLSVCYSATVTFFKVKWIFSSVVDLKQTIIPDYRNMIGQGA

Experiments:
Experiment in all cases: log2 fold change, soluble protein after heating vs DMSO (PISA); higher = thermal stabilisation; K562 lysate, 10 uM; active = over 0.2 and 3.5 SD of the protein, either way, in both replicates (recomputed)
[1] = compound: CS(=O)(=O)CCNCc1ccc(-c2ccc3ncnc(Nc4ccc(OCc5cccc(F)c5)c(Cl)c4)c3c2)o1 [lapatinib]
Method in brief: (§1)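 The values are log-two fold changes in thermal stability compared with solvent controls and come from duplicates. They were obtained by TMTpro 16plex LC-MS/MS, with channel sums equalised, on the supernatant after 21,000xg for 90 min. That supernatant came from crude K562 extract at 1 mg/mL protein treated with 10 μM compound for 30 min, heated for 3 min across 48°C-58°C, pooled and brought to 0.5% NP-40 at 4°C.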

[2] = compound: CS(=O)(=O)N1CCN(Cc2cc3nc(-c4cccc5[nH]ncc45)nc(N4CCOCC4)c3s2)CC1 [pictilisib]
Method in brief: as §1

[3] = compound: C[C@@H](Oc1cc(-c2cnn(C3CCNCC3)c2)cnc1N)c1c(Cl)ccc(F)c1Cl [crizotinib]
Method in brief: as §1

[4] = compound: C[C@H](C1=CC=C(C=C1)C(=O)NC2=C3C=CNC3=NC=C2)N
Method in brief: as §1

[5] = compound: C[C@H](Nc1ncnc2nc[nH]c12)c1cc2cccc(Cl)c2c(=O)n1-c1ccccc1 [duvelisib]
Method in brief: as §1

[6] = compound: Cc1cc(Nc2cc(CN3CCOCC3)c3nc(C)c(Cc4ccc(Cl)cc4F)n3n2)n[nH]1 [gandotinib]
Method in brief: as §1

[7] = compound: Cc1cc(Nc2cc(N3CCN(C)CC3)nc(Sc3ccc(NC(=O)C4CC4)cc3)n2)n[nH]1 [tozasertib]
Method in brief: as §1

[8] = compound: Cc1ccc(-n2nc(C(C)(C)C)cc2NC(=O)Nc2ccc(OCCN3CCOCC3)c3ccccc23)cc1 [doramapimod]
Method in brief: as §1

[9] = compound: Cc1ccc(NC(=O)c2ccc(CN3CC[C@H](N(C)C)C3)c(C(F)(F)F)c2)cc1Nc1nccc(-c2cncnc2)n1 [bafetinib]
Method in brief: as §1

[10] = compound: Cc1cccc(CC(=O)N2CCc3c2ccc(-c2cn(C)c4ncnc(N)c24)c3F)n1
Method in brief: as §1

Measured: log2 fold change

IMPA1 isoform 3 (UniProt P29218)
inactive: [1] -0.011 | [2] -0.021 | [3] 0.006 | [4] 0.033 | [5] 0.048 | [6] -0.041 | [7] -0.007 | [8] 0.035 | [9] 0.051 | [10] -0.07

IGF2BP3 (UniProt O00425)
inactive: [1] 0.013 | [2] -0.038 | [3] -0.031 | [4] -0.032 | [5] 0.017 | [6] -0.04 | [7] 0.001 | [8] -0.006 | [9] -0.045 | [10] 0.053

INTS11 (UniProt Q5TA45)
inactive: [1] -0.028 | [2] -0.016 | [3] 0.007 | [4] 0.02 | [5] -0.042 | [6] -0.057 | [7] 0.009 | [8] -0.011 | [9] -0.066 | [10] 0.027

IKBKB (UniProt O14920)
inactive: [1] 0.031 | [2] -0.019 | [3] -0.01 | [4] 0.105 | [5] 0.008 | [6] -0.015 | [7] -0.031 | [8] -0.002 | [9] -0.051 | [10] -0.028

ILK (UniProt Q13418)
inactive: [1] 0.01 | [2] -0.005 | [3] -0.038 | [4] 0.01 | [5] -0.036 | [6] -0.015 | [7] 0.005 | [8] 0.004 | [9] -0.002 | [10] 0.007

IFT74 (UniProt Q96LB3)
inactive: [1] -0.018 | [2] 0.011 | [3] -0.071 | [4] -0.171 | [5] 0.05 | [6] 0.221 | [7] 0.014 | [8] -0.001 | [9] -0.028 | [10] 0.177

ING4 (UniProt Q9UNL4)
inactive: [1] -0.096 | [2] -0.193 | [3] 0.014 | [8] 0.033 | [9] -0.209

IGFBP4 (UniProt P22692)
inactive: [1] -0.007 | [2] 0.015 | [3] -0.042 | [4] 0 | [5] -0.029 | [6] 0.019 | [8] 0.014 | [9] -0.149 | [10] 0.095

IFRD2 isoform 2 (UniProt Q12894)
inactive: [1] -0.075 | [2] 0.203 | [3] -0.04 | [4] -0.148 | [5] 0.047 | [6] 0.073 | [7] -0.034 | [8] -0.009 | [9] -0.076 | [10] 0.1

HSPA8 (UniProt E9PN89)
active: [4] -0.706
inactive: [1] 0.046 | [2] 0.05 | [3] -0.31 | [5] 0.004 | [6] 0.169 | [7] 0.074 | [8] 0.314 | [9] -0.021 | [10] 0.299

HYKK (UniProt A2RU49)
inactive: [1] 0.022 | [2] -0.173 | [3] -0.016 | [7] -0.135 | [8] -0.083 | [9] 0.033

HSPH1 (UniProt Q92598)
inactive: [1] 0.017 | [2] 0.008 | [3] -0.008 | [4] -0.001 | [5] 0.011 | [6] -0.039 | [7] 0 | [8] 0.008 | [9] 0.015 | [10] 0.019

IKZF4 (UniProt Q9H2S9)
inactive: [1] 0.19 | [2] -0.228 | [3] 0.021 | [7] 0.125 | [8] 0.094 | [9] -0.35

IDH3A (UniProt P50213)
inactive: [1] -0.012 | [2] -0.025 | [3] -0.018 | [4] 0.034 | [5] 0.017 | [6] -0.041 | [7] -0.003 | [8] 0.007 | [9] -0.007 | [10] -0.026

IDH3G (UniProt P51553)
inactive: [1] -0.006 | [2] -0.029 | [3] -0.05 | [4] -0.028 | [5] -0.014 | [6] 0.015 | [7] -0.008 | [8] 0.011 | [9] -0.015 | [10] 0.003

IGHA1 (UniProt P01876)
inactive: [2] 0.132 | [3] 1.12 | [4] 0.252 | [5] 0.333 | [6] -0.185 | [7] 1.3 | [8] -0.088 | [9] 0.276 | [10] 0.434

HSPH1 (UniProt Q5TBM3)
inactive: [1] 0.012 | [2] 0.177 | [4] -0.101 | [6] -0.046 | [9] 0.273 | [10] 0.16

INO80 (UniProt Q9ULG1)
inactive: [1] 0.125 | [3] -0.08 | [4] -0.029 | [6] -0.022 | [8] 0.067 | [10] -0.084

IFT43 (UniProt Q96FT9)
inactive: [2] 0.053 | [3] -0.173 | [5] 0.01 | [8] 0.137 | [9] -0.01

IFT46 isoform 2 (UniProt Q9NQC8)
inactive: [1] -0.086 | [3] 0.045 | [4] -0.099 | [6] 0.325 | [7] 0.085 | [8] -0.128 | [10] 0.29

ING1 (UniProt Q9UK53)
inactive: [2] -0.315 | [3] 0.035 | [4] -0.13 | [5] 0.048 | [6] 0.13 | [8] -0.079 | [9] 0.003 | [10] 0.027

HYOU1 (UniProt J3QL06)
inactive: [1] -0.08 | [3] -0.096 | [5] 0.1 | [7] -0.017 | [8] 0.03

IER3IP1 (UniProt Q9Y5U9)
inactive: [1] -0.057 | [2] 0.001 | [4] -0.114 | [5] -0.14 | [6] -0.065 | [7] -0.066 | [9] 0 | [10] 0.216

IL10RB (UniProt Q08334)
inactive: [1] -0.074 | [3] 0.041 | [5] -0.058 | [7] -0.081 | [8] 0.085

HTT (UniProt P42858)
inactive: [2] -0.028 | [3] -0.042 | [4] -0.012 | [5] -0.016 | [6] -0.124 | [7] 0.002 | [8] 0.006 | [9] -0.112 | [10] 0.094

IGKC (UniProt P01834)
inactive: [1] 0.123 | [2] 0.293 | [4] 0.08 | [5] 0.155 | [6] 0.152 | [7] 0.014 | [9] 0.128 | [10] 0.529

ING5 (UniProt Q8WYH8)
inactive: [1] -0.026 | [2] -0.114 | [5] 0.106 | [7] -0.11 | [9] -0.143

IDH3A isoform 2 (UniProt P50213)
inactive: [1] -0.034 | [2] -0.003 | [4] -0.253 | [5] -0.013 | [6] 0.196 | [7] -0.002 | [9] -0.023 | [10] 0.17

ILF3 (UniProt K7EKJ9)
inactive: [1] 0.141 | [3] 0.082 | [8] 0.054

IGHG3 (UniProt P01860)
inactive: [1] 0.29 | [2] 0.324 | [4] 0.167 | [6] 0.17 | [9] -0.363 | [10] 0.171

Quoted at random: two entries already listed.
ING5 (UniProt Q8WYH8)
inactive: [1] -0.026 | [2] -0.114 | [5] 0.106 | [7] -0.11 | [9] -0.143

IDH3A isoform 2 (UniProt P50213)
inactive: [1] -0.034 | [2] -0.003 | [4] -0.253 | [5] -0.013 | [6] 0.196 | [7] -0.002 | [9] -0.023 | [10] 0.17

The results go on:

HUWE1 isoform 2 (UniProt Q7Z6Z7)
inactive: [1] 0.21 | [7] 0.116

HYDIN (UniProt Q4G0P3)
inactive: [1] 0.037 | [5] 0.179 | [7] 0.041

ICMT (UniProt O60725)
inactive: [2] 0 | [3] -0.078 | [5] 0.004 | [7] 0.07 | [8] 0.061 | [9] -0.01

IDS (UniProt P22304)
inactive: [1] 0.005 | [2] 0.033 | [7] -0.552 | [9] 0.142
